PubChem BioAssay AID602203 – INSERM, 2012

Purpose: 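Confirming genes that raise or lower cisplatin-induced death in A549 cells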 (follow-up of hits)
Cell system: human A549 lung cancer cells
Knock-down reagent: siRNA pair against human genes
Challenge: cisplatin at a dose killing half of control-siRNA cells, given 48 h after transfection
Measurement: 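Cisplatin at a dose killing 50% of control cells, 48 h post-transfection; each siRNA +1 protective, -1 sensitizing, 0 if toxic (LDH) or antiproliferative (WST-1); per-gene sum and mean death change versus control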
Scale: summed siRNA score for cisplatin death: higher = more siRNAs reduced cisplatin-induced cell death; change in cisplatin death versus control: higher = fewer cells died than in control
Units: change in cisplatin death versus control in percentage points
Active means: In these data the active calls have summed siRNA score for cisplatin death at about -3 or lower, or at about 3 or higher
This is an unselected part of 999 reagents tested. In the full data, 85 (8.5%) are marked active. 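Unclear how single-siRNA scores of -1, 0 or +1 give the printed -4 to 4 range; calls lie near -3 or 3 and beyond.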 A number with no mark means an inactive call. Not stated in the record: the amount of reagent, the time to read-out, the dose of the treatment.

Silencing of LOC441687 gave: summed siRNA score for cisplatin death 0.
Depletion of ASTL (GeneID 431705) came out at: summed siRNA score for cisplatin death 3 (active); change in cisplatin death versus control 8.64.
After knock-down of PON2 (GeneID 5445), the record shows summed siRNA score for cisplatin death -1.
After knock-down of LOC440071 the results were summed siRNA score for cisplatin death -1.
For TGM5 (GeneID 9333), the entry reads summed siRNA score for cisplatin death -1.
After knock-down of PYGO1 (GeneID 26108) the results were summed siRNA score for cisplatin death 0.
Knock-down of CSF3R (GeneID 1441) came out at: summed siRNA score for cisplatin death -1.
For KIF3A (GeneID 11127) the deposit lists summed siRNA score for cisplatin death 0.
Silencing of LOC402162 gave: summed siRNA score for cisplatin death 0.
After knock-down of IVL (GeneID 3713) the results were summed siRNA score for cisplatin death 0.
For NFYC (GeneID 4802), the values are summed siRNA score for cisplatin death 0.
Silencing of COX5B (GeneID 1329) gave: summed siRNA score for cisplatin death 3 (active); change in cisplatin death versus control 10.6.
For STK33 (GeneID 65975) the deposit lists summed siRNA score for cisplatin death 1.
CDC45 (GeneID 8318) gave summed siRNA score for cisplatin death 0.
ADORA2B (GeneID 136) showed summed siRNA score for cisplatin death 0.
After knock-down of LOC389710, the record shows summed siRNA score for cisplatin death 0.
After knock-down of MYCBP2 (GeneID 23077) the results were summed siRNA score for cisplatin death 0.
Against EBP (GeneID 10682), the entry reads summed siRNA score for cisplatin death -3 (active); change in cisplatin death versus control -10.3.
With knock-down of ITPKB (GeneID 3707) the results were summed siRNA score for cisplatin death 0.
For TCFL5 (GeneID 10732), the entry reads summed siRNA score for cisplatin death -1.
With knock-down of LOC392164 the results were summed siRNA score for cisplatin death 0.
After knock-down of NOVA1 (GeneID 4857), the screen gave summed siRNA score for cisplatin death -1.
ASB15 (GeneID 142685) showed summed siRNA score for cisplatin death 0.
Depletion of STOML2 (GeneID 30968) resulted in: summed siRNA score for cisplatin death -1.
For PRMT8 (GeneID 56341), the entry reads summed siRNA score for cisplatin death 0.
Depletion of ARX (GeneID 170302) came out at: summed siRNA score for cisplatin death 0.
NFX1 (GeneID 4799) showed summed siRNA score for cisplatin death 0.
After knock-down of DKK1 (GeneID 22943), the screen gave summed siRNA score for cisplatin death -2.
LOC388312 scored summed siRNA score for cisplatin death 0.
Silencing of LOC441802 came out at: summed siRNA score for cisplatin death 1.
RRAGB (GeneID 10325) gave summed siRNA score for cisplatin death 0.
Silencing of LOC442198 gave: summed siRNA score for cisplatin death -1.
Knock-down of USP50 (GeneID 373509) came out at: summed siRNA score for cisplatin death 0.
With knock-down of CCL3L1 (GeneID 6349) the results were summed siRNA score for cisplatin death 2.
Silencing of S1PR3 (GeneID 1903) gave: summed siRNA score for cisplatin death -1.
IFI27L1 (GeneID 122509) showed summed siRNA score for cisplatin death 0.
Knock-down of RETNLB (GeneID 84666) resulted in: summed siRNA score for cisplatin death -2.
For LOC440665, the values are summed siRNA score for cisplatin death 0.
With knock-down of LRRC37A2 (GeneID 474170), the screen gave summed siRNA score for cisplatin death 2.
For CNOT7 (GeneID 29883), the values are summed siRNA score for cisplatin death 0.
Against HAO2 (GeneID 51179), the entry reads summed siRNA score for cisplatin death 1.
Knock-down of USP8 (GeneID 9101) resulted in: summed siRNA score for cisplatin death -3 (active); change in cisplatin death versus control -13.6.
SPEM2 (GeneID 201243) showed summed siRNA score for cisplatin death -1.
APOBEC3A (GeneID 200315) gave summed siRNA score for cisplatin death -1.
RAB14 (GeneID 51552) showed summed siRNA score for cisplatin death 0.
CYP11B2 (GeneID 1585) gave summed siRNA score for cisplatin death -3 (active); change in cisplatin death versus control -12.8.
After knock-down of PRSS55 (GeneID 203074) the results were summed siRNA score for cisplatin death 0.

Part of the list above, limited to “summed siRNA score for cisplatin death”:
TGM5 (GeneID 9333) = -1
PYGO1 (GeneID 26108) = 0
CSF3R (GeneID 1441) = -1
KIF3A (GeneID 11127) = 0
LOC402162 = 0
IVL (GeneID 3713) = 0
NFYC (GeneID 4802) = 0
